Results reported in US20130149309A1.
These are yes or no findings as the source states them, for the method shown. Binding seen in cells or lysates may run through a third protein. Some results given as binding are weak or reduced against the parent protein; the word gives no strength. Where a sequence is shown, tags or fusion partners need not be part of it.

Assays:
[1] = molecular target: T1, amyloid precursor protein C-terminal fragment (APP-CTF), P05067; assay: co-immunoprecipitation from HEK293 cells co-expressing NotchΔE-myc, APP-CTF and gSAP-16K-HA, both directions; conditions: remark: other sources report otherwise
[2] = molecular target: T1, amyloid precursor protein C-terminal …; assay: co-immunoprecipitation, HEK293 cells; conditions: remark: other sources report otherwise

B1: gSAP-16K-HA (16 KDa C-terminal fragment, amino acid sequence 733-854, of gSAP with a C-terminal HA tag), A4D1B5 733-854 (protein, human, UniProt A4D1B5 733-854, looked up, not shown: small tags and cut ends)
chain: RLMKDLDNTEKNEKLKFSIIVRLPPLIGQKICRLWDHPMSSNIISRNHVTRLLQNYKKQPRNSMINKSSFSVEFLPLNYFIEILTDIESSNQALYPFEGHDNVDAEFVEEAALKHTAMLLGL
- binding [1]: binds
- binding [2]: binds
